Reference: PubChem BioAssay AID602196 (INSERM, 2012)

Purpose: 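Modifiers of cisplatin sensitivity in A549 cells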
Cell system: human A549 lung cancer cells
Knock-down reagent: siRNA pair against human genes
Time to read-out: 48 h transfection before cisplatin; time from cisplatin to read-out not stated
Challenge: cisplatin at a dose killing half of control-siRNA cells; exact dose and duration not given
Read-out: 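Shift in cisplatin death relative to control siRNA, from -50 (all cells die) to +50 (no cells die); siRNAs harmful on their own scored 0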
Direction: two-siRNA summed score (-2 to +2): higher = both siRNAs protect from cisplatin killing; -2 means both sensitise; mean protection from cisplatin (shift in death) and protection from cisplatin (shift in death), siRNA C and protection from cisplatin (shift in death), siRNA D: higher = protection from cisplatin killing
Active means: 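Each siRNA scores 0 if harmful alone by LDH or WST-1, otherwise +1 if it reduces and -1 if it increases cisplatin killing; a gene is active when both siRNAs agree (sum +2 or -2)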
Meaning of the calls: active = both siRNAs shift cisplatin killing the same way; inactive = no consistent shift, or siRNA harmful alone
The deposit covers about 23,000 reagents; shown is a random part of them. Over the whole deposit, 455 (2%) are marked active. 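Active includes both protection and sensitisation; some change values fall well beyond the stated -50 to +50 range.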 The record does not give: the amount of reagent.

Gene,two-siRNA summed score (-2 to +2),mean protection from cisplatin (shift in death) (%),"protection from cisplatin (shift in death), siRNA C (%)","protection from cisplatin (shift in death), siRNA D (%)",Call
TPM3P9,0,6.8,6.9,6.7,inactive
SNX25,-1,-13.8,-17.2,-10.4,inactive
TSPAN17,0,2.3,-10.4,14.9,inactive
MANEAL,0,-1.5,1,-3.9,inactive
TOM1,0,-10.4,-8,-12.7,inactive
MYLK3,0,3.1,12.9,-6.7,inactive
GOLGA5,0,7.5,16.8,-1.9,inactive
FBXO31,-1,-7,-22.5,8.4,inactive
DGKB,0,2.2,-2.2,6.6,inactive
ENOSF1,0,11.7,12.6,10.8,inactive
LOC441646,1,36,20.4,51.6,inactive
DNAAF2,0,6.8,3.5,10.2,inactive
MBD6,0,4.4,5,3.7,inactive
FAM30A,1,8.3,3.7,12.9,inactive
RIC8A,0,7.7,7.2,8.3,inactive
LRRC36,0,8.1,3,13.2,inactive
KRTCAP3,0,3.6,7.4,-0.1,inactive
LTBP4,1,3.5,19.5,-12.5,inactive
SLC9A7,2,25.7,24,27.4,active
SLC25A36,-1,-18.2,-35.8,-0.6,inactive
BLOC1S4,0,-8.3,4.1,-20.7,inactive
CYP2R1,0,0.4,0.9,-0.1,inactive
CSRP1,0,3.4,4.4,2.3,inactive
TTLL12,0,6.8,14.2,-0.5,inactive
LOC391542,1,9.4,3.4,15.4,inactive
WDR11,0,2.5,8.8,-3.8,inactive
SLCO1B7,1,4.8,-4.3,13.8,inactive
MTX3,0,12.1,12.7,11.5,inactive
IZUMO1,1,20.5,22.9,18.2,inactive
DYNLL1,0,-8.4,-2.5,-14.3,inactive
ZNF584,0,9,8.5,9.6,inactive
CALCOCO1,1,11.8,1.3,22.3,inactive
MACF1,0,7.9,12.7,3.1,inactive
STX7,0,-13.2,-12.3,-14,inactive

Active calls (from the list above):
Gene,two-siRNA summed score (-2 to +2),mean protection from cisplatin (shift in death) (%),"protection from cisplatin (shift in death), siRNA C (%)","protection from cisplatin (shift in death), siRNA D (%)",Call
SLC9A7,2,25.7,24,27.4,active

Next reagents follow.
Gene,two-siRNA summed score (-2 to +2),mean protection from cisplatin (shift in death) (%),"protection from cisplatin (shift in death), siRNA C (%)","protection from cisplatin (shift in death), siRNA D (%)",Call
PTN,0,-10.2,-3.6,-16.9,inactive
SESN1,0,12,13.8,10.1,inactive
ZNF366,0,2,14.6,-10.6,inactive
LOC389252,0,8.3,2.9,13.6,inactive
TCTN2,0,15.8,16.5,15.1,inactive
LOC389345,0,8.7,13.8,3.5,inactive
CNGA2,-1,-1.3,-12.7,10.1,inactive
CNN1,2,21.1,18.3,23.8,active
CCDC107,1,24.2,28.2,20.2,inactive
CGREF1,1,11.2,23.2,-0.7,inactive
LOC442278,1,6.5,8.1,5,inactive
GOSR2,-1,-2.8,12.7,-18.3,inactive
FRMD6,0,-0.2,-2.8,2.4,inactive
LOC388418,0,10.1,5,15.2,inactive
BTNL8,1,15.5,11.1,20,inactive
CLCNKB,-1,-2.4,-8.5,3.8,inactive
G6PC2,0,2.8,-7,12.5,inactive
SRSF11,-1,-8.8,-3,-14.6,inactive
CCSER2,0,7,-1,15,inactive
TERB2,0,8.6,11.1,6.2,inactive
ARB2A,0,1.6,7.5,-4.3,inactive
SP110,0,6.8,12.8,0.8,inactive
ANKRD26P1,0,7,7.9,6.2,inactive
